According to patent US20100209426A1, “INHIBITORS OF PROGASTRIN-INDUCED REPRESSION OF ICAT FOR TREATING AND/OR PREVENTING COLORECTAL CANCER, ADENOMATOUS POLYPOSIS OR METASTASIS DISPLAYING PROGASTRIN-SECRETING CELLS AND CELLS IN WHICH THE BETA-CATENIN/TCF-MEDIATED TRANSCRIPTIONAL PATHWAY IS CONSTITUTIVELY ACTIVE” (INSERM (INSTITUT NATIONAL DE LA SANTE ET DE LA REC HERCHE …, priority 2006, published 2010):

Key:
DLD-1 cells = assay: Radioimmunoassay of GAS gene products in DLD-1 cell supernatants; format: cell-based, human
SW480 cells = assay: Radioimmunoassay of GAS gene products in SW480 cell supernatants; format: cell-based, human
[1] = DLD-1/ASG[1] cells (antisense GAST cDNA)
[2] = DLD-1/ASG[2] cells (antisense GAST cDNA)
[3] = SW480/GAS(−)[1] cells (GAST shRNA)
[4] = SW480/GAS(−)[2] cells (GAST shRNA)
[5] = SW480/βgal(−) cells (control shRNA)

Molecule | RIA quantification of secreted peptide (DLD-1 cells; [1]) | RIA quantification of secreted peptide (DLD-1 cells; [2]) | RIA quantification of secreted peptide (DLD-1 cells; DLD-1/VO cells (control)) | RIA quantification of secreted peptide (SW480 cells; [3]) [pmol/l/24 h] | RIA quantification of secreted peptide (SW480 cells; [4]) [pmol/l/24 h] | RIA quantification of secreted peptide (SW480 cells; [5]) [pmol/l/24 h]
amidated gastrin17: COOH terminally amidated gastrin, maturation product of progastrin [reference compound] | (<7) | (<7) | (<7) | 7 | <7 | <7
recombinant progastrin: full-length progastrin (1-80) prohormone encoded by the GAST gene; recombinant peptide or secreted by CRC cells (protein) SWKPRSQQPDAPLGTGANRDLELPWLEQQGPASHHRRQLGPQGPPHLVADPSKKQGPWLEEEEEAYGWMDFGRRSAEDEN | (19 ± 3) | (23 ± 1.5) | (396 ± 11) | 9 ± 1.5 | 6 ± 1 | 45.3 ± 3
glycine-extended gastrin17: glycine-extended gastrin, one of the products of progastrin maturation (peptide) peptide: SWKPRSQQPDAPLGTGANRDLELPWLEQQGPASHHRRQLGPQGPPHLVADPSKKQGPWLEEEEEAYGWMDFGRRSAEDEN | (18.6 ± 2) | (17 ± 2) | (310 ± 7) | 3 ± 1.5 | 2.1 ± 1 | 2.7 ± 1
